Results on 69 sequences are retold here after PubChem BioAssay AID1508600 (Functional Genomics Laboratory (NCATS/FGL), 2020).

In all, about 53,000 sequences went through this assay and about 3,700 (7%) were called active.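 How the source made its calls: active means gene knockdowns whose robust z-score for IL-1 alpha signal is at least 2 or at most -2, so actives lie on both sides; inactive means the rest.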 This is one part of the list.

The test is described as follows: Components of the Cytosolic LPS Sensing Pathway: Gene Identification via Genome-wide siRNA Screen.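 Further: robust z of the log signal after scaling to non-targeting control siRNA wells of the plate.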 To be noted: RAW264.7 macrophages, IL-1a HTRF, actives lie on both sides, screened at 100 nM (by protocol), cells primed 5 h with Pam3CSK4 first. An outline of the steps:
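RAW264.7; siRNA 100 nM final, RNAiMAX, 48h 37 degrees C; Pam3CSK4 5 h; LipidA + TransIT-TKO 24 h; IL-1a HTRF; CellTiter-Glo viability; robust z vs negative-control median.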
(Time-resolved FRET reads energy transfer from a long-lived donor to a nearby acceptor.)
As to GCAUGUUUACGUUCCUGACTT against Slc2a12, the z-score was inactive: -0.0386.
In the case of AAAACCACUCUGUUAUCACTT against Olfr774 it was inactive: 1.21.
In the case of CCAUGGAAUUCAAUUCCUUTT against Vmn2r66 it was inactive: 0.0798; in that of GGGCUCCGAUGAAGAGAAUTT against Ctrb1, inactive: 0.427; in that of CCUGAUAUUCCAUCCUGAATT against Acad10, inactive: -0.626.
In the case of GCACGAAUCCUUUGUAUCATT against Spta1 it was inactive: -0.202; in that of CCAAAUAGCCAAACUCUUGTT against Fgf17, inactive: 0.293; in that of GCAAUGGAUCUCGUUUUUCTT against Slc6a6, inactive: 0.273.
Turning to GGAGUUUUCUUGUGUUUUUTT against Fgfbp1, the z-score is inactive: -0.17.
In the case of CAAUGUUUGGGAACCUUCUTT against Olfr834 it was inactive: -1.19.
On to GGAUUCAGGAGAAAAGACCTT against Olfr569, for which the z-score was inactive: 1.66.
For CGGAAACAACUGCUCUAUGTT against Scarf1, the z-score is inactive: 0.0727.
In the case of GGCUUCUUCAGAUCCUAAATT against Olfr554 it was inactive: -0.615; in that of GGGAAGAGAAUGAGAUAAATT against F7, active: 3.22.
In the case of “GGAACAAGUAAAGACUGUUTT against 4932411K12” it was inactive: -1.73.
In the case of GGACUUUGUCACCAUGACGTT against Pef1 it was inactive: 0.105; in that of GGAAUUUUUGGACAAAGUATT against Grid2, inactive: 1.19; in that of GGAGCAGACAUCAGAAAGCTT against Nlrp5, inactive: 0.353.
For the sequence “GCAGGUUGCUAUGCAUAUGTT against 9930038B18Rik”, the z-score was inactive: 0.722.
In the case of GGUCAUAGUCACUGAUUCCTT against Magea5 it was inactive: -0.551.
In the case of GGAAGCUGUUCACCACUGCTT against Pex6 it was inactive: 0.648; in that of CCUAUGAGGUCAGAUUCUUTT against Ssr4, inactive: -0.0621; in that of GCCAAGUGUUGGACUUUCATT against Fads3, inactive: -0.563.
In the case of GGAGAAAGAGCCUUUAAGGTT against Clec14a it was inactive: -0.437.
As for GCAUGAAAACACGUUUGGGTT against Hdac11, the z-score is inactive: 1.36.
As to GGGAACAAAUUCAUUGUAUTT against Eny2, the z-score was active: 2.26.
Turning to GGGACAAAAGCUCCUCUAGTT against Kap, the z-score was inactive: -1.85.
With GGUUUCGUUGUUCUUGUUGTT against Ttc33, the z-score is inactive: 0.55.
Take CCACAAUUUGACCAACUUATT against Slc9a1: the z-score was inactive: 1.3.
In the case of CGACUGGGACAUUAAAACCTT against Tmem160 it was inactive: -1.55; in that of GGAAAGCUCAAUUGGUUCGTT against Nup85, active: -2.27; in that of AAUUGUAUGGUACUUCAUGTT against Olfr620, inactive: 0.343.
Regarding GGAAAACUAACCAAAAUAGTT against F3, the z-score is inactive: 1.45.
In the case of CCGGUUGUUUUGAGUGUUGTT against Rad9b it was inactive: 1.09.
In the case of GGGCUCAUCUCAGAGGAGATT against Astl it was inactive: 1.44; in that of GGACUGGUGGACAUAUGAATT against Os9, active: 2.81.
GGUUGGAGAAGUUGUUACUTT against Arl1: the z-score was inactive: -0.0722.
In the case of GCUGAAAAUACAAUCUCUGTT against Capn3, the z-score is inactive: 1.55.
In the case of GGUGUGUUCGAGUGUUUCUTT against Asb7 it was inactive: -0.602; in that of GGAAACUGAUCUUUUGAAGTT against Ptgdr, inactive: -0.267; in that of UUGACAGCUGGUAGACACUTT against Cdpf1, inactive: -0.96.
As for GGGCUAGAAGAACAUGUAATT against Ear1, the z-score was inactive: -1.16.
For the sequence CCUCUGUAGUCGCACCUAGTT against Agrp, the z-score was inactive: 1.56.
With GGUGGAUAGUGACUUAUAUTT against Ifi47, the z-score is inactive: 1.09.
In the case of GGAUGCAAGGGUUUUUUCCTT against Pparg it was inactive: -0.431; in that of GGAUUGAAAUGUGUAAAACTT against Fam135b, inactive: -1.03.
In the case of GCUGUUCCGAUUGGAAAUUTT against Pcmt1, the z-score is inactive: 0.885.
In the case of GGACAAGAAAACAGGUGUCTT against Tead3 it was inactive: 1.05; in that of GGAAGACAGGCAUAAAAAATT against Slc41a2, inactive: -1.38; in that of GCUCAUCGUGUUCGCUAUATT against Tuft1, inactive: -0.235.
In the case of GGGAGACACUACACAAAAATT against Hsd3b5 it was inactive: 0.58; in that of GGACACAAGAAUGGGAGAATT against Asph, inactive: 1.22; in that of GCGGGCUUUGCUGAGAUUUTT against Zbtb48, inactive: 0.604.
As to GGACUGGUCCGAGGUAACUTT against Bhlhb9, the z-score is inactive: -1.51.
In the case of GCAUUUGUUAAACCUGCCUTT against Coq10b it was inactive: -0.0587; in that of GCUAUGUAAGACAUUUAACTT against Ccdc162, inactive: 1.6.
With GGGACUUGCACUCAUCUUCTT against Sft2d2, the z-score was inactive: 0.487.
With UCCCAGAAUAAGAGUGAGGTT against Clec4b2, the z-score is inactive: -0.481.
For the sequence GGAUGCGGAUCAGAACUACTT against C1ql4, the z-score is inactive: 0.803.
In the case of GCAUGGAUUGCUGUUUCUATT against Fam122c it was inactive: 0.993; in that of GCAACAUGUGAACAGAUGCTT against Slx4, inactive: -0.13.
In the case of GGAUCUGCAUUUCACUAUUTT against Pi4ka it was inactive: 0.818; in that of GGUAACAAAUGCUGUUUUATT against Cul1, inactive: 0.459; in that of GGUUAUAUAAGCAUCAAGGTT against Adamts18, inactive: -0.621.
Take GGAUUCAGAAUCCAUCUCUTT against Ankrd40: the z-score is inactive: -1.9.
In the case of CCGCAUUCCCAUGAAGACATT against Poc1b it was inactive: 0.879; in that of GCGACACUGAAUUCUUUUATT against Ccng2, inactive: 1.53.
In the case of GGAAAAUUGUCCAUGUAAATT against Tex15 it was inactive: -1.61; in that of GACCUACUUUCCUCACUUUTT against Hba-a1, inactive: -0.54.
